In PubChem BioAssay AID1347426 (Functional Genomics Laboratory (NCATS/FGL), 2020):
The campaign covered roughly 31,000 sequences. About 1,400 (4.5%) were called active.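 Rule for the calls: active = median seed-adjusted z-score above 1 or below -1; inactive = the rest.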 The list shows a part of the results.

Experiment: Novel Modifiers of Survival Motor Neuron (SMN) Protein: Gene Identification via Genome-wide siRNA Screen;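 note: luminescence tracks full-length SMN protein made from the SMN2 reporter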
Conditions: HEK293T SMN2-luciferase reporter, siRNA knockdown, 72 h; actives lie on both sides
In short: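 siRNA screen, 10418 genes ×3 siRNAs; 1 pmol/well, lipid reverse transfection into HEK293T SMN2-luc reporter line. 72 h, 37 °C, 5% CO2; ONE-Glo readout. Data: neg-ctrl normalized, log10, MAD; hit = MAD >1.0 or < -1.0.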

Row | Sequence | median seed-adjusted z-score
1 | GGCUCGUCGUUGUAUCACATT against BMPR1A | inactive: 0.797
2 | GAAGCUACGUUGACUAUUUTT against HRC | active: 1.06
3 | GGAAUCUGCUGAUCUUGUUTT against ERAL1 | inactive: -0.46
4 | AAGUGGACUGCAGCAUUUATT against SPINK7 | inactive: -0.409
5 | GCAGUGUCCCAUCGUCUUATT against NSUN2 | inactive: -0.707
6 | AGCUCAAGAAGUACACCAATT against CHST12 | inactive: 0
7 | CUGCAGUACUGUUGCCUGATT against PRIC285 | inactive: 0
8 | GGAACUGUUUAUAAGGGUATT against RAF1 | inactive: 0
9 | AAAAGUACUUUGUCGGUUATT against ALOX5AP | inactive: -0.0169
10 | GGCCCUAUGUAUAUGCUUUTT against AK3 | inactive: -0.0313
11 | GGAACAUCUUGUAGACAUUTT against RNF135 | inactive: 0.581
12 | UCAUGACUGUUGCUACAAATT against PLA2G2A | inactive: 0.809
13 | CCGUGUUUCUCAUCGAGAUTT against ABP1 | inactive: -0.241
14 | GCAUUGUCCUGGUUCCCAATT against CYP27A1 | inactive: -0.391
15 | GAUUGACCGUGCAAAAUCATT against PI4K2B | inactive: 0.0345
16 | GACUCGAUUUUACAGGAAATT against OGN | inactive: 0.0889
17 | GAAUGGAAGUGGAUGCAGATT against ZMYND19 | inactive: 0.369
18 | GAAUACUUCGAGAACAUAATT against MME | inactive: 0.129
19 | CCUCUUAUAUCAAGCAGCATT against FOXF1 | inactive: -0.148
20 | GGCCCUGAGUAAUCGCUUATT against CEBPB | inactive: -0.748
21 | GUACUACCGUUUCAACGAATT against MMP14 | inactive: -0.0145
22 | GGAGCAGUCACUUACAGAATT against PINK1 | inactive: 0.192

Row | Sequence | median seed-adjusted z-score
23 | GACCAGAACAUGUACCCUATT against SHROOM4 | inactive: 0.825
24 | CCUUGUUCUUCUACCUAUATT against SYT14 | inactive: 0.0794
25 | CGAUGAUCAAUUACGAAAATT against PPP2R3C | inactive: 0.295
26 | AAGUGACUCUAGUCGUUUATT against REM2 | inactive: 0.109
27 | AUGUAAACAUUUACCAGAATT against CASZ1 | inactive: 0.263
28 | GAGAGACAGAAGUACGAAATT against P4HA1 | inactive: -0.293
29 | GCACAGUCUGAAGACGAGATT against ZNF783 | inactive: 0.284
30 | GGAAAGAGAUCUACCGCAATT against MYST1 | inactive: 0
31 | GCGAGUUGCUGCUAGUGCATT against B3GNT6 | inactive: 0.00618
32 | GACGAAGAGUGGUCAGUGATT against CECR1 | inactive: 0.00187
33 | GAAAUCAGCCUAUGGUUUATT against NME2 | inactive: -0.0728
34 | CCCUUAAUCUACAAUAUCATT against PHTF1 | inactive: 0.0129
35 | CUCGAUACCUUAGAAGAUATT against PDE4B | inactive: 0.546
36 | CAACUACACUGUCAACUACTT against DTX2 | inactive: 0.0597
37 | GGCGGAUUGACAGAAGUAUTT against CDC42SE2 | inactive: 0.381
38 | AGACAGUGAUUGCCGUCAATT against E2F2 | inactive: -0.382
39 | GAUCUUUCCUUCUUAAAGATT against EGFR | inactive: 0.263
40 | AGAGCCCACUAAUGAAGCATT against CHRM4 | inactive: -0.856
41 | GAUUGUCAUUGGAAGUAUUTT against TACR3 | inactive: 0.0904
42 | GCUCGACUAUCCAAAAUCATT against COX10 | inactive: 0.339
43 | GCACAACUCGUCACUCUUUTT against TLX3 | inactive: 0.0771
44 | CCAUCACUUUUGACCCGUUTT against USP19 | inactive: 0.47

Row | Sequence | median seed-adjusted z-score
45 | GCCUCUUCGUCAUCUCCAATT against MS4A10 | inactive: -0.24
46 | GCAUGGAAGUUGCAACUGUTT against KCND2 | inactive: -0.245
47 | GGAAGUACAUUUACAGUCUTT against CNGA3 | inactive: -0.125
48 | GACCAACAAGUUCAACUAUTT against SERPINE1 | inactive: 0.18
49 | UCAAAGAUCUGAAAUCUGATT against ANXA11 | inactive: 0.21
50 | GCCUUGACCUGAACUGCGATT against KCND1 | inactive: -0.359
51 | CUGACAUUAUGCAUGCUAATT against CYP4F22 | inactive: 0.383
52 | UCACCUCUAUGACACGAUUTT against RAB7L1 | inactive: 0.243
53 | GGAUAAAUGAGGAGGAUCATT against CKMT2 | inactive: -0.862
54 | GGAGAUGGACCAACCCAGATT against TENC1 | inactive: 0.892
55 | GCGUAUUUGAAAUGCCCAATT against VAPA | inactive: -0.623
56 | GCCGUGCUGUCUAAUCAAATT against HOXB9 | inactive: 0.717
57 | CCUACAAUGUGGUGCAUAUTT against DYRK4 | inactive: -0.824
58 | GGUUUUACCUAGACGUGAATT against PURG | inactive: 0.448
59 | GUGCGGUAGCUACUUGUUUTT against RRAD | inactive: -0.267
60 | CGAACUUAAUAGUACCCUUTT against NR0B1 | inactive: -0.526
61 | CGCCUCAACCUGAUCAUCATT against ENPP7 | inactive: -0.478
62 | CACUAGACGUGUUGUCAUUTT against RNASE4 | inactive: -0.0112
63 | AGUGCUCAGUAAAGCAAUATT against PTGER4 | inactive: -0.289
64 | GGAAGAACGGUGUUAGUUATT against ABCB10 | inactive: -0.1
65 | GGGUUUCUGUGAGAGACAATT against UBE2F | inactive: 0
66 | GAUCCUAUUAUAUAAUGGATT against CTSA | inactive: 0.0897

Row | Sequence | median seed-adjusted z-score
67 | GGACUUUGCCGGAUUCACUTT against OCA2 | inactive: 0.457
68 | CGAUGUGCACUACGACUUUTT against HMHA1 | inactive: -0.285
69 | CUCCUUAUCUAUACCAAAATT against SLC10A2 | inactive: -0.219
70 | AGAGAAGUCGGAAGAAGCATT against BATF3 | inactive: 0.698
71 | CGUUCUCCAUUGUCACCAATT against CAMK2B | inactive: 0.0305
72 | GGGUCUAAGUCAUUCGACUTT against LAMA2 | inactive: 0.0733
73 | GGAUCGUGGUUGCAGGGAUTT against DNASE1 | inactive: -0.35
74 | GAAUGAAACAACUGAUUAATT against PDIK1L | inactive: 0.0682
75 | GGCCUGAGAUCCAACUGCATT against SHBG | inactive: 0.587
76 | GGAGCGGAGAGAACGCAUUTT against TRIM17 | inactive: 0.574
77 | GCUGGAAGCUGCUCAAAGATT against SOX4 | inactive: -0.188
78 | CGUGUAACACUGCAUCGGATT against MGMT | inactive: -0.0549
79 | GGGAAAGCUGGACUACUAATT against PIK3CB | inactive: 0.0911
80 | GAGUGCCGGUAUUCAAGUATT against ALDH1L1 | inactive: 0.0289
81 | UGCCCUUCAUAGACGCAUATT against UPB1 | inactive: -0.0341
82 | GCACAUAUGAGCUAGUGUATT against TRIM3 | inactive: -0.215
83 | GCCUAUGUCAGAUCAGUAUTT against AP3D1 | inactive: 0.213
84 | GCCUGUCAGUGAUACUGAUTT against XPR1 | inactive: -0.024
85 | GGAUGUAGAGAAUGAGCUATT against RUFY2 | inactive: 0
86 | CAGCGAUGCUUGUAGCACATT against GPR125 | inactive: 0.516
87 | GGAUCAUGUUUGGAGCUAATT against GBA2 | inactive: 0.143
88 | ACACGGCAGUGGAAAGGAATT against CHRAC1 | inactive: 0.193

Row | Sequence | median seed-adjusted z-score
89 | AGACGGUAGAGAUUCUAAATT against 5-Sep | inactive: -0.0749
90 | CAGAUUUAAUAGACGAGUATT against PRKAR2A | inactive: 0.213
91 | CAUGGAUCCUAGCAAGAUUTT against KLKBL4 | inactive: -0.0132
92 | GUAAAGAUGCUACUGUAUATT against GDI1 | inactive: 0.198
93 | CUCAAGUCGUUGGACCAGATT against HIPK4 | inactive: 0
94 | GGAACGGCUUCAUCUCCAATT against CALN1 | inactive: 0.0753
95 | GCAGUGGAGUAUAACACCATT against SEMA6A | inactive: -0.192
96 | GCUUGGAAGAAAUCGCUGATT against CA9 | inactive: 0.0833
97 | ACAUCUCGCUGAAGGUUGATT against TEKT2 | inactive: -0.349
98 | CGUGCGGAAUUGUUCCUCUTT against CYP2B6 | inactive: 0.454
99 | GGAAAGUCUUUAGAUACAATT against ZNF17 | inactive: 0.579
100 | GACCCACUCCAAUUCUAGATT against TFAP2D | inactive: 0
101 | GCAGAUGGAUGGACUGAGATT against SLC25A45 | inactive: -0.246
102 | CUUGUCUCAUUGUCAAUAATT against TAT | inactive: 0.257
103 | CGUACAAACUGAUGUCCUUTT against AP4B1 | inactive: 0.0278
104 | GGAGCAUAUGCGAACAAUATT against RAB28 | inactive: 0.114
105 | GCUCAUCGACAUCAAAGUUTT against PRPF19 | inactive: -0.485
106 | GGCGUACGGUGAGAACAUUTT against ATP1B1 | inactive: 0.971
107 | CCCUAAUACCAGAAUAGGATT against CYBB | inactive: 0.0487

Rewritten as a markdown table: part of the list above.

| Row | Sequence | median seed-adjusted z-score |
| --- | --- | --- |
| 28 | GAGAGACAGAAGUACGAAATT against P4HA1 | inactive: -0.293 |
| 29 | GCACAGUCUGAAGACGAGATT against ZNF783 | inactive: 0.284 |
| 30 | GGAAAGAGAUCUACCGCAATT against MYST1 | inactive: 0 |
| 31 | GCGAGUUGCUGCUAGUGCATT against B3GNT6 | inactive: 0.00618 |
| 32 | GACGAAGAGUGGUCAGUGATT against CECR1 | inactive: 0.00187 |
| 33 | GAAAUCAGCCUAUGGUUUATT against NME2 | inactive: -0.0728 |
| 34 | CCCUUAAUCUACAAUAUCATT against PHTF1 | inactive: 0.0129 |
| 35 | CUCGAUACCUUAGAAGAUATT against PDE4B | inactive: 0.546 |
| 36 | CAACUACACUGUCAACUACTT against DTX2 | inactive: 0.0597 |
| 37 | GGCGGAUUGACAGAAGUAUTT against CDC42SE2 | inactive: 0.381 |
| 38 | AGACAGUGAUUGCCGUCAATT against E2F2 | inactive: -0.382 |
| 39 | GAUCUUUCCUUCUUAAAGATT against EGFR | inactive: 0.263 |
| 40 | AGAGCCCACUAAUGAAGCATT against CHRM4 | inactive: -0.856 |
| 41 | GAUUGUCAUUGGAAGUAUUTT against TACR3 | inactive: 0.0904 |
| 42 | GCUCGACUAUCCAAAAUCATT against COX10 | inactive: 0.339 |
| 43 | GCACAACUCGUCACUCUUUTT against TLX3 | inactive: 0.0771 |
| 44 | CCAUCACUUUUGACCCGUUTT against USP19 | inactive: 0.47 |
| 45 | GCCUCUUCGUCAUCUCCAATT against MS4A10 | inactive: -0.24 |
| 46 | GCAUGGAAGUUGCAACUGUTT against KCND2 | inactive: -0.245 |
| 47 | GGAAGUACAUUUACAGUCUTT against CNGA3 | inactive: -0.125 |
| 48 | GACCAACAAGUUCAACUAUTT against SERPINE1 | inactive: 0.18 |
| 49 | UCAAAGAUCUGAAAUCUGATT against ANXA11 | inactive: 0.21 |
| 50 | GCCUUGACCUGAACUGCGATT against KCND1 | inactive: -0.359 |
| 51 | CUGACAUUAUGCAUGCUAATT against CYP4F22 | inactive: 0.383 |
| 52 | UCACCUCUAUGACACGAUUTT against RAB7L1 | inactive: 0.243 |
| 53 | GGAUAAAUGAGGAGGAUCATT against CKMT2 | inactive: -0.862 |
| 54 | GGAGAUGGACCAACCCAGATT against TENC1 | inactive: 0.892 |
| 55 | GCGUAUUUGAAAUGCCCAATT against VAPA | inactive: -0.623 |
| 56 | GCCGUGCUGUCUAAUCAAATT against HOXB9 | inactive: 0.717 |
| 57 | CCUACAAUGUGGUGCAUAUTT against DYRK4 | inactive: -0.824 |
| 58 | GGUUUUACCUAGACGUGAATT against PURG | inactive: 0.448 |
